Results as given in US20250333782A1 (ILLUMINA, INC., priority 2022, published 2025).
Where a name gives a salt, the structure may show the parent alone. Some entries share one result that the patent states for a list of compounds.

These compounds were tested on 5caCpG dimer (assay: Amine borane reduction kinetics on 5caCpG). Conditions: 0.5 mM 5caCpG, borane 50 mM or 100 mM, NaOAc buffer pH 4.3, 25° C., RP-UHPLC; FIG. 3.

| SMILES | time required for consumption of 50% of 5caCpG (t50) |
| --- | --- |
| C[N+](C)(C)CC(=O)NCc1ccncc1 [4AMP-Bet, 4-(Betainamidomethyl)pyridine borane (OBt/PF6 salt)] | less than 40 minutes |
| [BH3-][n+]1ccc(CCO)cc1 [4HEP, 4-(2-Hydroxyethyl)pyridine borane] | less than 40 minutes |
| [BH3-][n+]1ccc(CO)cc1 [4HMP, 4-Hydroxymethylpyridine borane] | less than 40 minutes |
| [BH3-][n+]1ccc(CCCO)cc1 [4HPP, 4-(3-Hydroxypropyl)pyridine borane] | less than 40 minutes |
| B[n+]1csc(C)c1 [VM117, 5-methylthiazole borane] | less than 40 minutes |
| B[n+]1csc(CCOC)c1C [VM269, 5-methoxyethyl-4-methyl thiazole borane] | less than 40 minutes |
| B[n+]1c(C)sc(C(C)OC)c1C (stereo not drawn) [VM284, 2-(2,4-dimethyl-1,3-thiazol-5-yl)-2-methoxyethane borane] | less than 40 minutes |
| B[n+]1c(C)sc(COC)c1C [VM293, 5-(methoxymethyl)-2,4-dimethyl-1,3-thiazole borane] | less than 40 minutes |
| B[n+]1c(C)sc(COCCOCCOC)c1C [VM344, 5-(2-(2-methoxyethoxy)ethoxy)methyl-2,4-dimethyl-1,3-thiazole borane] | less than 40 minutes |
